Source: PubChem BioAssay AID248 (DTP/NCI, 2004)
The list is a part of this screen's results and no random one: it is rich in T/C values a quarter to a half above the control, in often repeated tests (any T/C) and in doses without a T/C. Other doses and runs of a compound stand elsewhere. T/C gives the treated animals as a percentage of the vehicle group. Some doses have a count of surviving animals in place of a T/C: the source holds a T/C of zero for them, seemingly a mark for toxic or unscored doses. Some survivor counts are full or nearly so, which does not show that the dose was tolerated: survival well below the control is almost never listed, so the zero probably covers shortened survival too. Survivors were counted at the toxicity check, usually on the fifth day, unless a day is given; later deaths do not show. Schedules are NCI's codes, read here as Q, the interval in days (D) or hours (H), X, the number of doses. Some schedule codes hold Z or #, which are not explained here. Some molecules as drawn cover several salts, stereoisomers or complexes of the source; a dose is that of the sample tested. Some entries were tested several times; the values are given in rising order. For survival time, this PubChem deposit counts one and a half times the control or more as active, and values a quarter to a half above the control carry no call in these data; other NCI protocols may use other cut-offs. Some T/C values carry the count of animals alive at the toxicity check (mostly the fifth day); without a count, all were alive then.

Tested on: L1210 leukemia ip in BDF1 mice, survival T/C
Assay: NCI In Vivo Anticancer Drug Screen. Data for tumor model L1210 Leukemia (intraperitoneal) in B6D2F1 (BDF1) mice
Conditions: higher T/C = longer survival

Cc1c2ccncc2c(C)c2c1[nH]c1ccccc12
T/C (T/C endpoint: mean survival time, dose: 600.0 mg/kg/injection, schedule: Q01DX001 (oral), vehicle: other, evaluated on day 60): 88 [8 of 10 alive] and 143 % of control [9 of 10 alive]
survivor count (T/C endpoint: mean survival time, dose: 600.0 mg/kg/injection, schedule: Q01DX001 (oral), vehicle: other): 0 of 10 and 3 of 10
survivor count (T/C endpoint: mean survival time, dose: 600.0 mg/kg/injection, schedule: Q01DX001 (oral), vehicle: saline with Tween-80): 0 of 10
survivor count (T/C endpoint: mean survival time, dose: 600.0 mg/kg/injection, schedule: Q01DX001 (oral), vehicle: saline): 6 of 10
survivor count (T/C endpoint: mean survival time, dose: 600.0 mg/kg/injection, schedule: Q08DX002 (ip), vehicle: other): 0 of 8
survivor count (T/C endpoint: mean survival time, dose: 600.0 mg/kg/injection, schedule: Q08DX002 (ip), vehicle: steroid suspending solution): 8 of 8
T/C (T/C endpoint: mean survival time, dose: 640.0 mg/kg/injection, schedule: Q01DX001 (ip), vehicle: acid diluted with saline): 133 % of control
survivor count (T/C endpoint: mean survival time, dose: 800.0 mg/kg/injection, schedule: Q01DX001 (oral), vehicle: water): 4 of 6 and 5 of 6
survivor count (T/C endpoint: mean survival time, dose: 960.0 mg/kg/injection, schedule: Q## X008 (oral), vehicle: carboxymethylcellulose (CMC)): 8 of 10
survivor count (T/C endpoint: mean survival time, dose: 960.0 mg/kg/injection, schedule: Q## X008 (oral), vehicle: other): 5 of 10
survivor count (T/C endpoint: mean survival time, dose: 960.0 mg/kg/injection, schedule: Q## X016 (oral), vehicle: other): 3 of 10
survivor count (T/C endpoint: mean survival time, dose: 1200.0 mg/kg/injection, schedule: Q01DX001 (ip), vehicle: steroid suspending solution): 7 of 8
survivor count (T/C endpoint: mean survival time, dose: 1200.0 mg/kg/injection, schedule: Q01DX001 (oral), vehicle: Klucel (hydroxypropylcellulose) (HPC)): 2 of 10
survivor count (T/C endpoint: mean survival time, dose: 1200.0 mg/kg/injection, schedule: Q01DX001 (oral), vehicle: other): 0 of 10 and 4 of 10
survivor count (T/C endpoint: mean survival time, dose: 1200.0 mg/kg/injection, schedule: Q01DX001 (oral), vehicle: saline with Tween-80): 3 of 10
survivor count (T/C endpoint: mean survival time, dose: 1200.0 mg/kg/injection, schedule: Q01DX001 (oral), vehicle: saline): 4 of 10
survivor count (T/C endpoint: mean survival time, dose: 1200.0 mg/kg/injection, schedule: Q08DX002 (ip), vehicle: steroid suspending solution): 7 of 8
survivor count (T/C endpoint: mean survival time, dose: 1200.0 mg/kg/injection, schedule: Q## X002 (oral), vehicle: other): 5 of 10
T/C (T/C endpoint: mean survival time, dose: 1280.0 mg/kg/injection, schedule: Q01DX001 (ip), vehicle: other): 127 % of control
T/C (T/C endpoint: median survival time, dose: 4.0 mg/kg/injection, schedule: Q01DX009 (sc), vehicle: water): 133 % of control
T/C (T/C endpoint: median survival time, dose: 4.0 mg/kg/injection, schedule: Q03HX008 (ip), vehicle: water): 133 % of control
T/C (T/C endpoint: median survival time, dose: 8.0 mg/kg/injection, schedule: Q01DX009 (oral), vehicle: other): 127 % of control [9 of 10 alive]
T/C (T/C endpoint: median survival time, dose: 8.0 mg/kg/injection, schedule: Q03HX008 (oral), vehicle: other): 133 % of control [9 of 10 alive]
T/C (T/C endpoint: median survival time, dose: 8.0 mg/kg/injection, schedule: Q03HX008 (sc), vehicle: water): 144 % of control
T/C (T/C endpoint: median survival time, dose: 16.0 mg/kg/injection, schedule: Q01DX009 (oral), vehicle: other): 133 % of control [8 of 10 alive]
T/C (T/C endpoint: median survival time, dose: 16.0 mg/kg/injection, schedule: Q03HX008 (oral), vehicle: other): 144 % of control [9 of 10 alive]
survivor count (T/C endpoint: median survival time, dose: 16.0 mg/kg/injection, schedule: Q03HX008 (sc), vehicle: water): 10 of 10
T/C (T/C endpoint: median survival time, dose: 25.0 mg/kg/injection, schedule: Q04DX003 (ip), vehicle: saline with Tween-80): 138 % of control
survivor count (T/C endpoint: median survival time, dose: 32.0 mg/kg/injection, schedule: Q03HX008 (ip), vehicle: other): 8 of 10
survivor count (T/C endpoint: median survival time, dose: 32.0 mg/kg/injection, schedule: Q03HX008 (ip), vehicle: water): 2 of 10
T/C (T/C endpoint: median survival time, dose: 64.0 mg/kg/injection, schedule: Q01DX001 (sc), vehicle: water): 144 % of control
survivor count (T/C endpoint: median survival time, dose: 64.0 mg/kg/injection, schedule: Q01DX009 (sc), vehicle: water): 9 of 10
survivor count (T/C endpoint: median survival time, dose: 64.0 mg/kg/injection, schedule: Q03HX008 (ip), vehicle: other): 0 of 10
survivor count (T/C endpoint: median survival time, dose: 64.0 mg/kg/injection, schedule: Q03HX008 (ip), vehicle: water): 0 of 9
survivor count (T/C endpoint: median survival time, dose: 64.0 mg/kg/injection, schedule: Q03HX008 (oral), vehicle: other): 7 of 10
survivor count (T/C endpoint: median survival time, dose: 64.0 mg/kg/injection, schedule: Q03HX008 (sc), vehicle: water): 9 of 10
T/C (T/C endpoint: median survival time, dose: 65.0 mg/kg/injection, schedule: Q01DX001 (ip), vehicle: Klucel (hydroxypropylcellulose) (HPC)): 125 % of control
T/C (T/C endpoint: median survival time, dose: 128.0 mg/kg/injection, schedule: Q01DX001 (oral), vehicle: other): 144 % of control [9 of 10 alive]
survivor count (T/C endpoint: median survival time, dose: 128.0 mg/kg/injection, schedule: Q01DX009 (oral), vehicle: other): 10 of 10
T/C (T/C endpoint: median survival time, dose: 180.0 mg/kg/injection, schedule: Q01DX001 (ip), vehicle: Klucel (hydroxypropylcellulose) (HPC), evaluated on day 5): 127 % of control
T/C (T/C endpoint: median survival time, dose: 180.0 mg/kg/injection, schedule: Q01DX001 (ip), vehicle: Klucel (hydroxypropylcellulose) (HPC), evaluated on day 30): 130 % of control [7 of 8 alive]
survivor count (T/C endpoint: median survival time, dose: 300.0 mg/kg/injection, schedule: Q01DX001 (ip), vehicle: Klucel (hydroxypropylcellulose) (HPC)): 7 of 8
survivor count (T/C endpoint: median survival time, dose: 500.0 mg/kg/injection, schedule: Q01DX001 (ip), vehicle: Klucel (hydroxypropylcellulose) (HPC)): 7 of 8
survivor count (T/C endpoint: median survival time, dose: 512.0 mg/kg/injection, schedule: Q01DX001 (oral), vehicle: other): 10 of 10
